Test results reported in patent US11207379B2, “Peptides with anti-cancer activity” (IDP DISCOVERY PHARMA, S.L., priority 2016, dated 2021).
At least one structure is not confirmed: it was looked up by name or label, or the drawing left a doubt. Numbered stars: 1 amine (or outer) side, 2 acyl side, 3 side chain; on linkers, the order of the positions; unused ones are H or OH. Bridge positions count the residues as written; N and C are the ends. Square brackets hold non-standard residues; d marks the D form. Peptide text beside a SMILES is read from it. ξ: configuration not given here. ξαMeNle(6-ylidene) = CC(CCCC=[*:3])(N[*:1])C(=O)[*:2]; X1 = CC(CCCCCCC=[*:3])(N[*:1])C(=O)[*:2]

How the values were obtained:
MM1S cells = test: Subcutaneous xenograft model, tumor volume and survival; assay type: in vivo, CB17-SCID immunosuppressed mice; details: 5 mg/kg i.p. each 12 h; for Tumor Volume: in mm³ (unit assumed)
Method: CB17-SCID immunosuppressed mice (female) of 6-7 weeks old housed and handled in a pathogen-free zone. They were purchased from Janvier Labs. All experiments were carried out within the facilities of the University of Salamanca.
Groups Studied: • Control: Medium (PBS) i.p. each 12 hours from Monday to Friday. • S03 i.p. each 12 hours from Monday to Friday (in PBS until end point) • S04 15 mg/kg i.p. each 12 hours from Monday to Friday (in PBS until end point) • S09 5 mg/kg i.p. each 12 hours from Monday to Friday (in PBS until end point)
Subcutaneous xenoaraft model: The mice were shaved on the right flank and anesthetized by inhalation to decrease their mobility, were inoculated subcutaneously with 3×10^6 MM1S cells in 50 μl of RPMI-1640 medium and 50 μl of Corning® Matrigel® Basement Membrane Matrix. When the tumors became palpable (at 30 days), the mice were randomized into the different groups (5 mice in the control group and 4 in the remaining groups) according to the tumor volume. This was estimated by measurements with a caliper of the two tumor diameters and using the following formula of a spheroid: V=(a·b^2·π)/6, where a and b correspond to the longest and shortest diameter, respectively. Tumor volume was monitored three times per week.
Survival evaluation: Mice were sacrificed when their tumor diameter reached 2 cm. The time to reach the endpoint criterion was estimated from the day of treatment start. The statistical differences were evaluated using Kaplan-Meier curves with the log rank test. Statistical analyzes were performed using the SPSS-17.0 program.

MM.1S cells = test: Annexin V assay by flow cytometry; assay type: cell-based
Method: (§1) Miltenyi Biotec Annexin V-FITC Kit was used. To detect apoptosis in early stage Phosphatidylserine in plasmatic membrane localization was measured, though the calcium dependent reaction with Annexine V. Annexin V molecules were labelled with different fluorophores (FITC) and analyzed by FACS. To detect apoptosis in late stage DNA-intercalating agents, such Propidium iodide (PI) were used.
(§2) Cells were seeded at a density range of 150000-30000 cells/well in 12 wells plates, and incubated at 37° C. in the incubator under CO2 atmosphere. After 24 h, treatments at 4 h, 8 h, 18 h, 48 h and 72 h were performed in cell lines A549, HL-60 and MM.1S, at IC30 and/or IC80, with compounds IDP-S09 and IL-09, in cell lines HL-60 and MM.1S with compound IDP-S04 and in cell line A549 with compounds IDP-S02 and IDP-S03. Staurosporine and compound 100258-F4 (Sigma) were used as positive control and reference compound, respectively.

HL-60 cells = test: Annexin V assay by flow cytometry; assay type: cell-based; details: for Percentage of HL-60 gated cells (positive to Annexin V): compound at EC30, control = 100%
Method: as §1, §2

How did the “tumor reduction with respect to the control” value (MM1S cells; at the end-time (when the control is sacrificed)) turn out when `CC[C@H](C)[C@H](NC(=O)[C@H](Cc1ccc(O)cc1)NC(=O)[C@H](C)NC(=O)C1(C)CCCC=CCCCCCCC(C)(NC(=O)[C@H](CCCCN)NC(=O)[C@@H]2CCCN2C(=O)[C@H](C)N)C(=O)N[C@@H](C(C)C)C(=O)N[C@@H]([C@@H](C)CC)C(=O)N[C@@H](CC(C)C)C(=O)N[C@@H](CCCCN)C(=O)N[C@@H](CCCCN)C(=O)N[C@@H](C)C(=O)N1)C(=O)N[C@@H](CC(C)C)C(=O)N[C@@H](CO)C(=O)O` (stereo partly shown) [IDP-S09, APKXVILKKAXAYILS-OH] (H-APK[X1]VILKKA[ξαMeNle(6-ylidene)]AYILS-OH; staple 4-11; N-terminus assumed) was run?
Its value is 70%.

What about the “% Tumor Volume” value (MM1S cells; day of treatment 1 (= 100)) of the same compound?
Its value is 100%.

And the “Tumor Volume” value (MM1S cells; day of treatment 1)?
Its value is 60.6.

What about the “% Tumor Volume” value (MM1S cells; day of treatment 5, relative to day 1) of the same compound?
The value was 89.6%.

What about the “Tumor Volume” value (MM1S cells; day of treatment 5) of the same compound?
Its value is 54.3.

And the “% Tumor Volume” value (MM1S cells; day of treatment 10, relative to day 1)?
The value was 276.1%.

And the “Tumor Volume” value (MM1S cells; day of treatment 10)?
The value was 167.5.

What about the “% Tumor Volume” value (MM1S cells; day of treatment 15, relative to day 1) of the same compound?
Its value is 654.7%.

And the “Tumor Volume” value (MM1S cells; day of treatment 15)?
The value was 397.1.

What about the “% Tumor Volume” value (MM1S cells; day of treatment 19, relative to day 1) of the same compound?
Its value is 737.7%.

And the “Tumor Volume” value (MM1S cells; day of treatment 19)?
Its value is 447.4.

And the “% Tumor Volume” value (MM1S cells; day of treatment 26, relative to day 1)?
Its value is 1666.1%.

And the “Percentage of MM.1S gated cells (positive to Annexin V)” value (from here on “Percentage of MM.1S gated cells”) (MM.1S cells; 4 h, compound at EC30, control = 100%)?
The value was 120%.

And the “Percentage of MM.1S gated cells” value (MM.1S cells; 4 h, compound at EC80, control = 100%)?
Its value is 2000%.

What about the “Percentage of MM.1S gated cells” value (MM.1S cells; 8 h, compound at EC30, control = 100%) of the same compound?
The value was 300%.

What about the “Percentage of MM.1S gated cells” value (MM.1S cells; 8 h, compound at EC80, control = 100%) of the same compound?
The value was 1800%.

What about the “Percentage of MM.1S gated cells” value (MM.1S cells; 48 h, compound at EC30, control = 100%) of the same compound?
Its value is 2300%.

And the “Percentage of MM.1S gated cells” value (MM.1S cells; 72 h, compound at EC30, control = 100%)?
Its value is 1200%.

What about the “apoptosis induction (Annexin V by FACS), in words” value (MM.1S cells; MM.1S cells) of the same compound?
Its value is “induces apoptosis at 48 h and 72 h at low concentration (IC30) and at 4 h and 8 h at high concentration (IC80)”.

What about the “Percentage of HL-60 gated cells (positive to Annexin V)” value (HL-60 cells; 48 h) of the same compound?
Its value is 300%.

What about the “Percentage of HL-60 gated cells (positive to Annexin V)” value (HL-60 cells; 72 h) of the same compound?
The value was 180%.

And the “apoptosis induction (Annexin V by FACS), in words” value (HL-60 cells; HL-60 cells)?
The value was “apoptosis induction is significant after 48 h and 72 h at low concentrations (IC30)”.
